Test results: patent US20040102611A1
Results are given in words; binding and its absence hold for the method and conditions named. Binding seen in cells or lysates may run through a third protein. Some results given as binding are weak or reduced against the parent protein; the word gives no strength. Sequences can lack the tags named with a protein.

Sequences of proteins named here, by UniProt entry; tags and fusion partners are left off. A change or cut given only in a name is not applied to a line headed by its entry.
UniProt O00311: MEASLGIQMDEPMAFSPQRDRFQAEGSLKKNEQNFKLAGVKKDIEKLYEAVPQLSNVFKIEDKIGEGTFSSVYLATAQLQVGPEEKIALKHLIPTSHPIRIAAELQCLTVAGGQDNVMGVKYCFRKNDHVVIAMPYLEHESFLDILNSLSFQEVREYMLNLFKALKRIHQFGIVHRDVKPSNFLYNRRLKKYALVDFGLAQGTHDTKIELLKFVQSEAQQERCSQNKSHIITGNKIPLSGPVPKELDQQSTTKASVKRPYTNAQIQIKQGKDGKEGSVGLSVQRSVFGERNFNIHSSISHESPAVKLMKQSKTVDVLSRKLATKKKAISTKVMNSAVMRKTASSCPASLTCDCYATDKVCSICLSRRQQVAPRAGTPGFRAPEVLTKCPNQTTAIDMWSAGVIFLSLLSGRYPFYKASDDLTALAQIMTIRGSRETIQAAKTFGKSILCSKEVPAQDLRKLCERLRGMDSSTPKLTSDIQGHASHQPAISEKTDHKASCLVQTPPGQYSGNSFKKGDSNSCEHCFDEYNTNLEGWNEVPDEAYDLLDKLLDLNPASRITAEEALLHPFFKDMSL

Columns and labels:
[1] = biological target: FLAG-tagged human CDC7 kinase, wild type (pCdc7FLAG-tagged, in pCMV-Tag2) (human) (UniProt O00311); test: co-immunoprecipitation and western blot (legend of FIG. 2)
[2] = biological target: FLAG-tagged human CDC7 kinase, wild type (pCdc7FLAG-tagged, in pCMV-Tag2) (human) (UniProt O00311); test: reciprocal co-immunoprecipitation (anti-HA and anti-FLAG) from transfected 293 cells, western blot
[3] = biological target: FLAG-tagged human CDC7 kinase, kinase negative form K90R (pCdc7FLAG K90R) (human) (UniProt O00311); test: as above
[4] = biological target: endogenous CDC7 of human 293 cells (human) (UniProt O00311); test: co-immunoprecipitation with anti-HA from transfected 293 cells, western blot with anti-CDC7

- binding [1]: binds
- binding [2]: binds
- binding [3]: binds
- binding [4]: binds
B1: HA-DRF1 (DRF1 with N-terminal HA epitope, expressed from pCDNAHAdrf1) (protein, not shown: small tags and cut ends)
chain: SEPGKGDDCLELESSMAESRLRAPDLGVSRCLGKCQKNSPGARKHPFSGKSFYLDLPAGKNLQFLTGAIQQLGGVIEGFLSKEVSYIVSSRREVKAESSGKSHRGCPSPSPSEVRVETSAMVDPKGSHPRPSRKPVDSVPLSRGKELLQKAIRNQGSISGGGSGGSSSLLTNARSWGVRILHVDEMMMHVQQLSLASLCVKKQQPKKPEGTCPAAESRTRKVARLKAPFLKIEDESRKFRPFHHQFKSFPEISFLGPKDASPFEAPTTLGSMHHTRESKDGEPSPRSAAHTMPRRKKGYCECCQEAFEELHVHLQSAQHRSFALEAHLYAEVDRIIAQLSHSFADIPFQAGLPRWSGSPASDCDPLCPETLHPHQPSHPRAASPRIRKEDSCQASVTQGRAAGQQRWTESLDGVMGPPASHTCVSATTLLPALPKGSREQGCLCPCPASFTQSHLVTSLALLPGEWSPAEDMPLHPSQENSFAPADIPVKGPLLFPEARPWLMSARCWVRPFPFVTWGCLIPHDTTPLHEEVSPCPCLRLGYLYLLLTQSLWCRVRVPSLSTAGPIPRTSHPCTLAFPSYLNDHDLGHLCQAKPQGWNTPQPFLHCGFLAVDSG
